This note sets out measurements from publication PMC5064454.

Weaker means in comparison with the reference protein, sequence or condition of that experiment. For some assays here: Construct, isoform or probe ends are uncertain for at least one entry.

What all share (experiment): EMSA
The target in series [1] is p53-320 (C-terminal region, OD + basic domain) (Homo sapiens) (UniProt P04637). Particulars: 50 mM KCl, EMSA: 5 mM Tris pH 7.6, 0.5 mM EDTA, 0.01% Triton X-100, 50 mM KCl, 0.5 mM DTT, on ice 20 min (30 min for plasmids), recombinant protein, residues 320-393, label: 5' 32P.
Series [2] concerns the target p53CD (GSTp53CD, central DBD) (Homo sapiens) (UniProt P04637). Particulars: 50 mM KCl, EMSA: 5 mM Tris pH 7.6, 0.5 mM EDTA, 0.01% Triton X-100, 50 mM KCl, 0.5 mM DTT, on ice 20 min (30 min for plasmids), recombinant protein, residues 94-312, protein details: GST, label: 5' 32P.
The target in series [3] is p53CT (GSTp53CT) (Homo sapiens) (UniProt P04637). The note with it: 50 mM KCl, only residual binding; EMSA: 5 mM Tris pH 7.6, 0.5 mM EDTA, 0.01% Triton X-100, 50 mM KCl, 0.5 mM DTT, on ice 20 min (30 min for plasmids); recombinant protein; residues 320-393; protein details: GST; label: 5' 32P.
Another series addresses p53CΔ30 (Homo sapiens) (UniProt P04637). The note with it: 50 mM KCl, EMSA: 5 mM Tris pH 7.6, 0.5 mM EDTA, 0.01% Triton X-100, 50 mM KCl, 0.5 mM DTT, on ice 20 min (30 min for plasmids), recombinant protein, residues 1-363, label: 5' 32P.
Series [4] addresses p53T (GSTp53T) (Homo sapiens) (UniProt P04637). The note with it: 50 mM KCl, EMSA: 5 mM Tris pH 7.6, 0.5 mM EDTA, 0.01% Triton X-100, 50 mM KCl, 0.5 mM DTT, on ice 20 min (30 min for plasmids), recombinant protein, residues 363-393, protein details: GST, label: 5' 32P.
For series [5], the target named is wtp53 (full-length wild-type p53) (Homo sapiens) (UniProt P04637). Particulars: 50 mM KCl, only residual binding; EMSA: 5 mM Tris pH 7.6, 0.5 mM EDTA, 0.01% Triton X-100, 50 mM KCl, 0.5 mM DTT, on ice 20 min (30 min for plasmids); recombinant protein; residues 1-393; label: 5' 32P.
Setting [6] is: lower than wtp53, folded or branched DNA.

With “GACGGTATCGATAAGAGACATGCCTAGACATGCCTCTTGATATCGAATTC (double strand) [P1-50]”, the binding result in series [1] (only minimal binding) is listed as “binds more weakly”.
With “GAGACATGCCTAGACATGCCTC (double strand) [P1-22]”, the binding result in series [1] (only minimal binding) was “binds more weakly”.
Regarding “GTAAGAGACATGCCTAGACATGCCTCATCG (double strand) [P1-30]”, the binding result in series [1] (only minimal binding) is “binds more weakly”.
On to “TGGGGAGGGTGGGGAGGGTGGGGAAGGTGGGGA [Pu33]”, for which the binding result in series [1] (setting [6]) and in series [2] (setting [6]) was “binds more weakly” in each case.
Consider “TTGGGGCGCTTATGGGGAGGGTGGGGAGGGTGGGGAAGGTGGGGAGGAGACT (double strand) [dsPu52/Py52]”, for which the binding result (in series [2] (only residual binding); in series [3]; in the series with p53CΔ30 (Homo sapiens) (only residual binding); in series [4] (only residual binding); in series [5]) was “binds more weakly” each time.
As to “TTGGGGCGCTTATGGGGAGGGTGGGGAGGGTGGGGAAGGTGGGGAGGAGACT [Pu52]”, the binding result in series [1] (setting [6]) is “binds more weakly”; in series [2] (minimal binding, folded or branched DNA), “binds more weakly”; with p53CΔ30 (Homo sapiens) (only minimal binding, folded or branched DNA), “binds more weakly”; in series [4] (lesser extent than wtp53 and p53CT, folded or branched DNA) it was “binds more weakly”.
